# Assay results from the supplement of paper PMC4604168 (melanoma cell lines).
# Some of the results follow. Repeats are few or missing, and single values can be far off.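 Cells were imaged in 1,536-well plates, and nuclei stained with an antibody against cleaved PARP were counted against all DNA-stained nuclei to give the apoptosis fraction. Screening doses were chosen to leave most cells alive, and resting and induced cleaved-PARP levels differ strongly between cell lines.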
# Key:
# Test in all cases: cleaved PARP positive nuclei fraction relative to DMSO control; melanoma cells; higher = more apoptosis
# Conditions in all cases: library dose: low library concentration; 72 h
# WM115 = test system: WM115
# WM1716 = test system: WM1716
# WM1745 = test system: WM1745
# WM3526 = test system: WM3526
# WM3619 = test system: WM3619
# WM451Lu = test system: WM451Lu
SMILES,cleaved PARP positive nuclei fraction (WM115) [%],cleaved PARP positive nuclei fraction (WM1716) [%],cleaved PARP positive nuclei fraction (WM1745) [%],cleaved PARP positive nuclei fraction (WM3526) [%],cleaved PARP positive nuclei fraction (WM3619) [%],cleaved PARP positive nuclei fraction (WM451Lu) [%]
"COc1ccc2c(c1)CCC1C2CCC2(C)C(NCCCCCCN3C(=O)C=CC3=O)CCC12 (stereo unspecified) + COc1cc(N2CCC(N3CCN(C)CC3)CC2)ccc1Nc1ncc(Cl)c(Nc2ccccc2S(=O)(=O)C(C)C)n1 [NVP-TAE684] (first compound 0.4 µM, partner dose 0.08 µM)",70.7,86.6,248,73.9,79.8,81
"COc1ccc(COc2ccc(Cc3cnc(N)nc3N)cc2OC)cc1 + O=C1NC(=O)/C(=C/c2ccc(-c3ccc(F)cc3O)o2)S1 [AS252424] (first compound 1 µM, partner dose 1 µM)",176,145,100,55.9,88.3,66.5
"CN(NC(=O)CC(=O)NN(C)C(=S)c1ccccc1)C(=S)c1ccccc1 + COc1ccc2c(c1)CCC1C2CCC2(C)C(NCCCCCCN3C(=O)C=CC3=O)CCC12 [U73122] (first compound 0.006 µM, partner dose 0.4 µM)",92.6,142,88.9,135,74.5,48.2
"O=S(=O)(c1ccccc1)N(CC(F)(F)F)c1ccc(C(O)(C(F)(F)F)C(F)(F)F)cc1 + c1cc(-c2cnn3cc(-c4ccc(OCCN5CCCCC5)cc4)cnc23)ccn1 [Dorsomorphin] (first compound 1.4 µM, partner dose 0.4 µM)",43.2,141,116,73.8,68,88.6
"COc1cc2c(Oc3ccc4[nH]c(C)cc4c3F)ncnc2cc1OCCCN1CCCC1 [cediranib] + O=c1cc(-c2cccc3c2Sc2ccccc2S3)oc(N2CCOCC2)c1 [KU55933] (first compound 0.4 µM, partner dose 1 µM)",104,65.5,88.4,64.7,75.5,504
"CCN(CC)CCCCNc1ncc2cc(-c3cc(OC)cc(OC)c3)c(NC(=O)NC(C)(C)C)nc2n1 + COc1ccc(COc2ccc(Cc3cnc(N)nc3N)cc2OC)cc1 [GW2580] (first compound 0.1 µM, partner dose 1 µM)",225,117,104,31.7,203,121
